Measured values taken from PubChem BioAssay AID743255 (National Center for Advancing Translational Sciences (NCATS), 2014).
The whole screen tested about 390,000 compounds, of which about 910 (0.23%) were called active. The inconclusive results got no clear call from the source; some entries with a clear call stand among them for comparison. Calls come from the whole dose curve; as a rule, active = well fitted inhibition curve with a large enough effect; inconclusive = small, poorly fitted or top-dose-only effect; inactive = no such curve, though single readings can be large or run the other way. Potencies beside an inconclusive call are fits to weak or partial responses and may not hold up.

Sequences of proteins named here, by UniProt entry; tags and fusion partners are left off. A change or cut given only in a name is not applied to a line headed by its entry.
UniProt O94782: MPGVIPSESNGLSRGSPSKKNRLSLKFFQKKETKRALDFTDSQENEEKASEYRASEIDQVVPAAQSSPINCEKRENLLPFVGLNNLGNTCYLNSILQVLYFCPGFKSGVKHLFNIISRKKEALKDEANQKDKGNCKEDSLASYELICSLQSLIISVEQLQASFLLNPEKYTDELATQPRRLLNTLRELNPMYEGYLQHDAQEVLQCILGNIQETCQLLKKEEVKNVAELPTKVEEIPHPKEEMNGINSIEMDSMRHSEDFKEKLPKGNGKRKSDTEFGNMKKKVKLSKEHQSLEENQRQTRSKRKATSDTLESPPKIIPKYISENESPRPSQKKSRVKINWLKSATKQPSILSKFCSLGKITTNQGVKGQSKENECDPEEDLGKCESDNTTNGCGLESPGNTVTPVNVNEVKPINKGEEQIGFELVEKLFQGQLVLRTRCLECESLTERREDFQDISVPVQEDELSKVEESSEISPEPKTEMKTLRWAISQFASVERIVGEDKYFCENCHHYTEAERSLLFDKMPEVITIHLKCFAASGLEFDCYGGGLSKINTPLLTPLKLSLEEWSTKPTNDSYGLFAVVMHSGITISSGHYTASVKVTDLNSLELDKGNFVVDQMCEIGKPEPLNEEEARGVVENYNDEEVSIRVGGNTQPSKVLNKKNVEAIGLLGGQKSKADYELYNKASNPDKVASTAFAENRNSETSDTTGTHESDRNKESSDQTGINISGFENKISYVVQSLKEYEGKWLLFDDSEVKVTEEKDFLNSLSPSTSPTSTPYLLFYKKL

molecular target: Ubiquitin carboxyl-terminal hydrolase 1 (Homo sapiens) (UniProt O94782); test: Inhibitors of USP1/UAF1: Primary Screen; conditions: recombinant USP1/UAF1, Ub-Rhodamine cleavage fluorescence; activity change, negative = inhibition: at 57.1 µM (top of the series); note: nearly all actives have a fitted effect of over 60% in size
Procedure, shortened: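 1 nM enzyme complex + cpd, 15 min RT; start with Ub-Rho 150nM final; kinetic fluorescence ex 480/em 540, 6 reads q60 s. Buffer 50mM HEPES pH 7.8, 0.5mM EDTA, 0.1 mg/ml BSA, 1mM TCEP, 0.01% Tween-20.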
% is set by controls: 0 for no effect and ±100 for the full control effect; potency is the fitted concentration of half-maximal effect.

SMILES | activity change, negative = inhibition | Potency
O=C(CCl)Nc1c(C(=O)Nc2ccc3c(c2)OCCO3)oc2ccccc12 | inactive: -13.6% | –
CCN(CC)S(=O)(=O)c1ccc2c(c1)nc(CN(C)C(=O)c1cccc(Cl)c1)n2C | inactive: -5.64% | –
CC1CCN(S(=O)(=O)c2ccc3c(c2)N(CC(=O)NCCCN2CCCCC2C)C(=O)CS3)CC1 (configuration not stated) | – | inconclusive: 0.251 µM [inhibitor, full curve, poor fit]
N#Cc1ccccc1NC(=O)c1cc2c(=O)n3ccccc3nc2s1 | inactive: -23.5% | –
COc1ccccc1NC(=O)CC(=O)c1ccccc1 | inactive: -22.4% | –
CC1=CC2=NC(=O)/C(=C/c3coc4ccccc4c3=O)C(=N)N2O1 | – | active: 28.2 µM
CN(C)S(=O)(=O)c1cc(NC(=O)COC(=O)CC2CC3CCC2C3)ccc1Cl (configuration not stated) | – | inconclusive: 31.6 µM [inhibitor, single point]
Brc1cc2c(cc1/C=N/Nc1nc3ccccc3s1)OCO2 | inactive: -23.3% | –
CCCCCCn1c(=O)[nH]c2nc3cc(N)c(C)cc3nc2c1=O | – | inconclusive: 4.47 µM [inhibitor, partial curve, poor fit]
Cc1c(NC(=O)COC(=O)c2cccn2C)c(=O)n(-c2ccccc2)n1C | – | inconclusive: 56.2 µM [inhibitor, partial curve, poor fit]
Cc1ccc(NC(=O)COC(=O)CCc2c[nH]c3ccccc23)cc1 | – | inconclusive: 251 µM [inhibitor, partial curve, poor fit]
Cc1ccc(-n2nc(C)c3c(C)cc(=O)n(CC(=O)Nc4ccc(Br)cc4F)c32)cc1 | inactive: -25.7% | –
COc1cc(C(C)n2nnc3ccccc32)ccc1O (configuration not stated) | inactive: -17.4% | –
CCc1ccc(Oc2nc3c(C)cccn3c(=O)c2/C=C(\C#N)c2nc3ccccc3[nH]2)cc1 | – | inconclusive: 0.891 µM [inhibitor, full curve, poor fit]
O=C(OCc1c(-c2ccccc2)ncc2ccccc12)c1ccccc1C(F)(F)F | – | inconclusive: 31.6 µM [inhibitor, partial curve, poor fit]
CCN(CC)C(=O)Oc1ccc2oc(=O)cc(-c3cc4cccc(OC)c4o3)c2c1 | – | inconclusive: 0.112 µM [inhibitor, full curve, poor fit]
CC1=NN(c2ccccc2)C(=O)/C1=C\N(O)c1ccccc1 | – | inconclusive: 35.5 µM [inhibitor, partial curve]
CCN(CC)C(=O)c1sc2nc(N3CCOCC3)c3c(c2c1N)CCCC3 | inactive: -22.6% | –
CC1CCCN(C(C(=O)Nc2ccc3c(c2)OCO3)c2ccccc2)C1 (configuration not stated) | inactive: -12.1% | –
CC1(C)CC(=O)C(C=NCCN2CCN(C3CC(=O)N(c4ccc(Br)cc4)C3=O)CC2)=C(O)C1 (configuration not stated) | – | inconclusive: 15.8 µM [inhibitor, partial curve]
CCOC(=O)c1cccc(NC(=O)CCc2c(C)nc3cc(-c4ccc(Cl)cc4)nn3c2C)c1 | – | inconclusive: 0.282 µM [inhibitor, full curve, poor fit]
COc1coc(C(O)C[N+](=O)[O-])cc1=O (configuration not stated) | inactive: -11.9% | –
OCCNc1nc(N2CCCCC2)nc2ccccc12 | – | inconclusive: 44.7 µM [inhibitor, partial curve]

As entered above:
Entry for OCCNc1nc(N2CCCCC2)nc2ccccc12 under Potency: inconclusive: 44.7 µM [inhibitor, partial curve]
Entry for CC1=CC2=NC(=O)/C(=C/c3coc4ccccc4c3=O)C(=N)N2O1 under Potency: active: 28.2 µM
Entry for CC1(C)CC(=O)C(C=NCCN2CCN(C3CC(=O)N(c4ccc(Br)cc4)C3=O)CC2)=C(O)C1 (configuration not stated) under Potency: inconclusive: 15.8 µM [inhibitor, partial curve]

Later entries:

SMILES | activity change, negative = inhibition | Potency
CC(C)OC(=O)CSc1nnnn1-c1ccc2c(c1)OCCO2 | – | inconclusive: 0.355 µM [inhibitor, full curve, poor fit]
Cc1ccc(Nc2nnc(-c3ccc(C)c(S(=O)(=O)N4CCN(C)CC4)c3)c3ccccc23)c(C)c1 | inactive: -15.8% | –
Cc1ccc(SC[C@H](Cc2ccccc2)N2CCN(CC(C)C)CCC2=O)cc1 | – | inconclusive: 7.08 µM [inhibitor, partial curve]
O=c1c(-c2ccc(Br)cc2)[n+]([O-])c2ccccc2n1OCc1ccccn1 | inactive: -6.96% | –
COc1cccc(NC(=O)c2sc3nc(C)c(C(=O)Nc4ccc(C)cc4C)c(-c4sccc4C)c3c2N)c1 | – | inconclusive: 20 µM [inhibitor, partial curve, poor fit]
O=c1c2oc3ccccc3c2n(Cc2cccc(F)c2)c(=O)n1Cc1ccco1 | inactive: 3.42% | –
COc1ccc(C(=O)Nc2cc(C(C)C)c(O)c(S(=O)(=O)c3ccc(OC)cc3)c2C)cc1 | – | inconclusive: 44.7 µM [inhibitor, partial curve]
CC(C)c1ccccc1NC(=O)COC(=O)Cc1cccc(C(F)(F)F)c1 | inactive: -2.84% | –
CN1OC[C@@H]2CN[C@H](c3cccc(N4CCOCC4)c3)C[C@@H]21 | inactive: -14% | –
Cc1cccc2sc(NC(=O)CSCc3ccccc3)nc12 | – | inconclusive: 44.7 µM [inhibitor, partial curve, poor fit]
O=C(Nc1nc(=O)[nH]s1)c1ccccc1 | inactive: -9.79% | –
O=C(Nc1ccc2c(c1)COC2=O)c1ccc(Cl)c(Cl)c1 | inactive: -12.9% | –
CCCCCCCCNS(=O)(=O)CCNC1CC1 | – | inconclusive: 0.282 µM [inhibitor, full curve]
O=C(O)c1cc(-c2ccc(O)cc2)on1 | inactive: -19.3% | –
Cc1ccc(NC(=S)N2CCN(C(=O)c3ccccc3)CC2)c(C)c1 | inactive: -21.2% | –
Cc1ccc(C=Nc2ccc(N(C)C)cc2)o1 | – | inconclusive: 35.5 µM [inhibitor, partial curve]
COc1ccccc1C(=O)NCCNC(=O)c1ccc(C)nc1 | – | inconclusive: 8.91 µM [inhibitor, single point]
CC(C)CN1C(=O)C(=O)N(CC(=O)Nc2cc(Cl)ccc2Oc2ccccc2)C1=O | – | inconclusive: 3.55 µM [inhibitor, full curve, poor fit]
COc1ccc(/C=C/C(=O)Nc2cccc(F)c2)cc1 | – | inconclusive: 39.8 µM [inhibitor, partial curve, poor fit]
CC(C)C[C@@H]1CN=C(N)N1C[C@@H]1CCCN1C[C@H](C)N1C[C@@H](Cc2ccccc2)N(CCCC2CCCC2)C1=N | – | inconclusive: 12.6 µM [inhibitor, partial curve, poor fit]
CC1=NN(c2ccc(S(=O)(=O)O)cc2Cl)C(=O)C1 | – | inconclusive: 17.8 µM [inhibitor, partial curve]
Cc1ccc(-c2nn3c(C)nnc3c3ccccc23)cc1S(=O)(=O)NC(C)(C)CO | – | inconclusive: 5.62 µM [inhibitor, partial curve, poor fit]
Cc1ccc(OC(=O)c2ccc3c(=O)n4c(nc3c2)CCC4)cc1 | – | inconclusive: 0.631 µM [inhibitor, full curve, poor fit]

SMILES | activity change, negative = inhibition | Potency
COC(=O)C1=C(C)NC(=O)CC1c1ccccc1F (configuration not stated) | inactive: -6.26% | –
COc1ccc(CNC(=O)C2CCN(c3nnc(C)c4c(C)n(-c5ccc(C)cc5)nc34)CC2)cc1 | – | inconclusive: 44.7 µM [inhibitor, single point]
CCn1nc(NC(=O)c2ccncc2)c2cc3cccc(C)c3nc21 | – | inconclusive: 0.0891 µM [inhibitor, full curve, poor fit]
O=C(CC1C(=O)N(Cc2ccccc2)C(=S)N1CCN1CCOCC1)Nc1ccc(F)cc1 (configuration not stated) | – | inconclusive: 44.7 µM [inhibitor, partial curve, poor fit]
CC(C)(C)OC(=O)COc1cc(F)ccc1[N+](=O)[O-] | – | inconclusive: 0.251 µM [inhibitor, full curve, poor fit]
Cn1ccc(=Nc2ccc(NC(=O)c3ccc(N=c4ccn(C)c5ccc([N+](=O)[O-])cc45)cc3)cc2)cc1 | – | inconclusive: 44.7 µM [inhibitor, partial curve, poor fit]
Cc1oc(-c2ccccc2)nc1Cn1c(=O)cc(-c2ccccc2)c2c(C)nn(C)c21 | inactive: -8.09% | –
COc1ccc(C(=O)N2CCN(CCc3ccccn3)CC2)cc1 | – | inactive
Cc1cccc(C)c1NC(=O)Cn1c(=O)n(CCC(=O)NCc2ccc3c(c2)OCO3)c(=O)c2sccc21 | inactive: -23.1% | –
Cc1cccc(C)c1NC(=O)CN(C)CC(=O)N1CC(=O)Nc2ccccc21 | – | inconclusive: 8.91 µM [inhibitor, partial curve, poor fit]
CCOC(=O)C(C)N1CC(=O)N(c2ccccc2)C1=O (configuration not stated) | – | inconclusive: 15.8 µM [inhibitor, partial curve]
CCn1c(=O)c2cc(C(=O)NCCc3ccc(OC)c(OC)c3)sc2c2ccccc21 | – | inconclusive: 7.94 µM [inhibitor, full curve, poor fit]
O=C(O)CN1C(=O)/C(=C\c2cccc(OCc3ccc(Cl)cc3Cl)c2)SC1=S | – | inconclusive: 31.6 µM [inhibitor, partial curve]
Cc1nnc(NC(=O)CCn2c(=O)oc3ccccc32)s1 | – | inconclusive: 7.08 µM [inhibitor, partial curve, poor fit]
CCOc1ccc(CNC(=O)c2ccc(Sc3ccc(C)cc3)c(N)c2)cc1OC | inactive: -10.6% | –
COc1ccc(-c2oc3ncnc(NCCCO)c3c2-c2ccc(OC)cc2)cc1 | – | inconclusive: 0.316 µM [inhibitor, full curve, poor fit]
CC(C)CN(CC(C)C)c1nnc(NC(=O)Nc2cccc(C(F)(F)F)c2)s1 | – | inconclusive: 17.8 µM [inhibitor, partial curve, poor fit]
CCN(C(=O)COC(=O)c1cccc(S(=O)(=O)N2CCOCC2)c1)C1CCS(=O)(=O)C1 (configuration not stated) | – | inconclusive: 3.16 µM [inhibitor, full curve]
CCOc1c(C)cc(S(=O)(=O)NCc2ccccn2)c(C)c1C | – | inconclusive: 39.8 µM [inhibitor, partial curve]
O=C(NCC1CCN(Cc2cccc(Cl)c2)CC1)C1CCCN(c2ncnc3c2nc2n3CCCCC2)C1 (configuration not stated) | – | inconclusive: 39.8 µM [inhibitor, partial curve, poor fit]
CCN1C(=O)CC(c2ccccc2)N(C2CCCC2)c2nc(Nc3ccc(C(=O)NC4CCN(C)CC4)cc3OC)ncc21 (configuration not stated) | – | inconclusive: 8.91 µM [inhibitor, partial curve, poor fit]
